According to PMC12040169 (PLOS Biology, 2025):
The other results are listed elsewhere or left out.

Each compound was assayed on T1, CTL2-GFP (C. trachomatis L2/434/Bu, GFP-expressing). Conditions: bulk GFP, single well; 28.5 h, 10 µM; inhibitor.
T1 construct: L2/434/Bu, GFP-expressing
Set-up: species or system HeLa; Intracellular C. trachomatis growth in HeLa cells, bulk GFP fluorescence relative to DMSO

Structure (SMILES) | % of control remaining [%]
COc1ccc(NC(=O)N[C@@H]2CC[C@@]3(c4ccc(OC)c(OC)c4)CCN(C)[C@H]3C2)c(C)c1 [CBK036460T] | 88.188
CCOC(=O)CN1CCN(c2nccnc2OC2CCCCC2)CC1 [CBK082837T] | 76.4642
COCCCNC(=S)N/N=C/c1ccco1 [CBK006272] | 100.002
Cn1nccc1C(=O)N1CCC2(C/C=C/COc3ccccc3C(=O)NC[C@@H](Cc3ccccc3)NC2=O)CC1 [CBK292183] | 121.85
COc1cc(OC)c(NC(=O)C(C)Oc2ccc(Br)cc2)cc1Cl (stereo not shown) [CBK266791] | 147.574
COC(=O)c1ccccc1NC(=O)CSCc1ccc(Cl)cc1Cl [CBK131712] | 102.775
Cc1cn([C@H]2C[C@@H](O)[C@@H](CO)O2)c(N)nc1=O [CBK201327] | 154.984
CCOc1nc(=O)c(C)cn1C1CC(O)C(CO)O1 (stereo not shown) [CBK201334] | 137.692
Cc1nn(C)cc1CN(CCCn1ccnc1)Cc1cccc(F)c1 [CBK283098] | 138.059
CN(C)S(=O)(=O)c1ccc(NC(=O)CCC(=O)O)cc1 [CBK267156] | 162.364
CN(C)C(=O)N1CCC2(CC1)CC(=O)N(Cc1ccc(S(C)(=O)=O)cc1)C2=O [CBK155957] | 122.391
Cn1ccc(C(=O)NC2CCN(c3ncccn3)CC2)cc1=O [CBK304280] | 114.621
O=C1CCC(=O)N1CCn1c(=O)n(C(=O)CCC2CCCC2)c2ccccc21 [CBK106495] | 112.825
CNC(=O)CSc1nc2cc(Cl)ccc2c(=O)n1CC1CCCO1 (stereo not shown) [CBK305937] | 155.759
CC(=O)C(C)n1c(=O)c2c(nc3oc(C(C)(C)C)cn32)n(C)c1=O (stereo not shown) [CBK306027] | 124.593
O=C(Nc1ncc(Cc2ccc(F)cc2)s1)C1CCCCC1 [CBK058611] | 125.351
CCCC(=O)Nc1cccc(NC(=O)c2nc[nH]n2)c1 [CBK269604] | 103.845
CC1CCCCC1NC(=O)NC(=O)Cn1nnc2ccccc2c1=O (stereo not shown) [CBK306046] | 94.3333
COc1ccc(-c2nc(-c3cccc(F)c3)cnc2N)cc1OC [CBK063948] | 154.888
COc1cc(Br)c(OC)c(C(=O)N(C)Cc2cnn(C)c2)c1 [CBK244011] | 138.76

Structure (SMILES) | % of control remaining [%]
COc1cccc(-c2ccc(C(=O)NCc3ccccc3SC)c(N3CCN(C(=O)c4ccco4)CC3)n2)c1 [CBK106025] | 96.6371
O=C(NCC1COc2ccccc2O1)c1ccc(-c2ccc(OC(F)(F)F)cc2)nc1 (stereo not shown) [CBK156214] | 119.208
O=C(c1cncnc1)N1CCc2ccccc21 [CBK200272] | 77.656
O=C1CC(c2ccccc2F)C2=C(COC2=O)N1 (stereo not shown) [CBK086692] | 99.4195
Cc1nn(CC(C)C)c(Cl)c1C(=O)Nc1nc2ccc(F)cc2s1 [CBK252188] | 102.236
COc1ccc(-c2nnc(SCC(=O)Nc3cc(C)on3)n2C2CCCCC2)cc1 [CBK297510] | 135.733
CC(CCN1CCN(Cc2ccccc2)CC1)c1ccccc1 (stereo not shown) [CBK261902] | 100
Cc1ccc2nc(NC(=O)c3cc(C)n(C)n3)sc2c1 [CBK287668] | 107.281
CC(=O)c1c[nH]c(=O)[nH]c1=O [CBK012093] | 105.843
Cc1nc(-c2cc3c(s2)CCN(CC(O)COCc2ccco2)C3)cs1 (stereo not shown) [CBK304460] | 143.642
CCOC(=O)COc1ccc(S(=O)(=O)N2CCN(Cc3ccc4c(c3)OCO4)CC2)cc1 [CBK074492] | 136.49
CCN(Cc1ccncc1)C(=O)NCCc1ccc(OC)cc1 [CBK155149] | 110.867
CN(Cc1ccccc1N1CCCC1)C(=O)Cc1cn2ccsc2n1 [CBK305897] | 54.5249
CN(C)c1nc2n(c(=O)n1)CCS2 [CBK019025] | 100.905
N=C(N)SCc1ccc(CSC(=N)N)cc1 [CBK278309C] | 100
COC(=O)[C@@H]1Cc2ncn(C(C)C)c2CN1C(=O)C1CCCCC1 [CBK288989] | 144.182
Cc1c(C(C)NCC(C)(C)N(C)C)cnn1-c1ccc(C#N)cc1 (stereo not shown) [CBK306447] | 89.0244
CCC1(C)Cc2sc3[nH]c(=O)c(SCC(N)=O)nc3c2CO1 (stereo not shown) [CBK020581] | 115.166
OC(COCc1ccco1)CN1CCc2sccc2C1C1CC1 (stereo not shown) [CBK305167] | 87.7969
Cc1c(C)n(Cc2ccco2)c2ncnc(NCCCC(=O)O)c12 [CBK307562] | 121.836

Compounds listed so far that contain a COOH group, in the order listed:
Structure (SMILES) | % of control remaining [%]
CN(C)S(=O)(=O)c1ccc(NC(=O)CCC(=O)O)cc1 [CBK267156] | 162.364
Cc1c(C)n(Cc2ccco2)c2ncnc(NCCCC(=O)O)c12 [CBK307562] | 121.836
